In publication PMC9282995:
These are yes or no findings as the source states them, for the method shown. In cells and extracts the contact can be indirect. Some binding calls cover weakened binding; strength is not graded here. Where a sequence is shown, tags or fusion partners need not be part of it.

Amino acid sequences for entries named in this document (tags omitted).
UniProt O00303: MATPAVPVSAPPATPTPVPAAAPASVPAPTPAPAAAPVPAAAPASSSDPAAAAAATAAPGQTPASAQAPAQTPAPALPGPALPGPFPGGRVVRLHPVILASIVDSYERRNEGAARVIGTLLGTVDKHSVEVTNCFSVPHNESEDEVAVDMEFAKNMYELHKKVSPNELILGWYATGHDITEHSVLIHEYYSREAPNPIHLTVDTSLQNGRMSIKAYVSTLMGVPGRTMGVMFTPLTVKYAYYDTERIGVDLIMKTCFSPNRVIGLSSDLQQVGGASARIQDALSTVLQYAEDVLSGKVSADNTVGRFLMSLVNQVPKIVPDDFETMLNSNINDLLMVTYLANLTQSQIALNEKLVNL
UniProt P27816: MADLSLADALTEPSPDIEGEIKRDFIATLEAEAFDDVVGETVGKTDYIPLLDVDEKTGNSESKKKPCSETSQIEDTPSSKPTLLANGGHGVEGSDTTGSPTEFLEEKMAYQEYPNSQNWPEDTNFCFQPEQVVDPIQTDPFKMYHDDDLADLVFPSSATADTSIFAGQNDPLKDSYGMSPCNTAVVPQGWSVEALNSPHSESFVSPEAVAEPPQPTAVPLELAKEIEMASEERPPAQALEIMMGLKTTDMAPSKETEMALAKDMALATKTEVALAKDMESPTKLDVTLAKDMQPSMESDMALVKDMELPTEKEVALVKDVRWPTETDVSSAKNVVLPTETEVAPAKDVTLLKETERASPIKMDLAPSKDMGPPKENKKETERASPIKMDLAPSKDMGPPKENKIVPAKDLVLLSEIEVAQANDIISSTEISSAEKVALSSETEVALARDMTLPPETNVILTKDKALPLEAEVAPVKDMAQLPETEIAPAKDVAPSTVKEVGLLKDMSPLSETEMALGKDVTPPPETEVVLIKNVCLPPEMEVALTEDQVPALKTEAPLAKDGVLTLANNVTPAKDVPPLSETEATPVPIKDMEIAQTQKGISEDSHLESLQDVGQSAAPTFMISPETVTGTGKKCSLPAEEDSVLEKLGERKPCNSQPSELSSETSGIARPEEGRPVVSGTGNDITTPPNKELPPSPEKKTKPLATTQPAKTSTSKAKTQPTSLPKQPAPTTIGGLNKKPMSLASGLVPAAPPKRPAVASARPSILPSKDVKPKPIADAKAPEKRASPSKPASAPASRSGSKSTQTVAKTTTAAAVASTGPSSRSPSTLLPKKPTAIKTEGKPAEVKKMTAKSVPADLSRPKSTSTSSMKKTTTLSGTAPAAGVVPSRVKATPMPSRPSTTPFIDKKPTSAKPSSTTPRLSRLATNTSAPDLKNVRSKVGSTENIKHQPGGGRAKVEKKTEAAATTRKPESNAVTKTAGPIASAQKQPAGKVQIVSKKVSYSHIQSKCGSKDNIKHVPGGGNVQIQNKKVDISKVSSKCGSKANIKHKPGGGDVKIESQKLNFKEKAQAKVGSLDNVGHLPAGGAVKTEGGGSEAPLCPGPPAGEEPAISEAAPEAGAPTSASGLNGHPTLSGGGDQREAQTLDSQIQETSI
UniProt P09874: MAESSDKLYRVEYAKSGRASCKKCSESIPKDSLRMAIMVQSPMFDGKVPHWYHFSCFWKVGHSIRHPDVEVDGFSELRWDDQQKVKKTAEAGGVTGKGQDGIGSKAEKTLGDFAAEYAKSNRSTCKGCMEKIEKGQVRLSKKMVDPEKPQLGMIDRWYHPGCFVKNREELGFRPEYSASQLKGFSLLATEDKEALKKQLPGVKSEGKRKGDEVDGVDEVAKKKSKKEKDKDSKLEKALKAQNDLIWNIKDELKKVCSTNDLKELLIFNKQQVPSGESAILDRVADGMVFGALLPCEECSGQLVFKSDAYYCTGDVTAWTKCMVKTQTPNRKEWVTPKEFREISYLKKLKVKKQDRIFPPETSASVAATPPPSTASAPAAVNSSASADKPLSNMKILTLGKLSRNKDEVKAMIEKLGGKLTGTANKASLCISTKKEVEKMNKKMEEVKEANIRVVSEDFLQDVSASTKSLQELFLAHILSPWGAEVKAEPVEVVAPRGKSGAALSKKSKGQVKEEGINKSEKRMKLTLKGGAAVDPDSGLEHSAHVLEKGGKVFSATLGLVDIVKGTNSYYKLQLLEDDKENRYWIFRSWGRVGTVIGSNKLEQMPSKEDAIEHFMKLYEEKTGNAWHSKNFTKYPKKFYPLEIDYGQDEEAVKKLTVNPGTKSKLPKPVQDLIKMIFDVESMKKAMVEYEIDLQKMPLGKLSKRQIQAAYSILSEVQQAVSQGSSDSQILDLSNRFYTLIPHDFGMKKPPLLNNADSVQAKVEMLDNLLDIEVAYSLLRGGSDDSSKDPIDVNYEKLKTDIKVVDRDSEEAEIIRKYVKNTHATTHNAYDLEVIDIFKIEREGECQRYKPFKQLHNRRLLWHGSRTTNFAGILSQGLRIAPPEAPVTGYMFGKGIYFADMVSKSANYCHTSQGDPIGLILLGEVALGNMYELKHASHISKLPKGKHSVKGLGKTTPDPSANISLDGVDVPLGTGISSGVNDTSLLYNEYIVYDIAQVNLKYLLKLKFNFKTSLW

What follows are substances tested against T1, Bone morphogenetic protein/retinoic acid inducible neural-specific 3 (BRINP3), 3x Flag-tagged (UniProt Q76B58) (assay: co-IP; lysates of U2OS cells overexpressing Flag-BRINP3; IP lysis buffer with protease inhibitor cocktail; antibodies and protein A beads 4 h at 4°C; beads washed three times with lysis buffer; western blot).
T1 sequence: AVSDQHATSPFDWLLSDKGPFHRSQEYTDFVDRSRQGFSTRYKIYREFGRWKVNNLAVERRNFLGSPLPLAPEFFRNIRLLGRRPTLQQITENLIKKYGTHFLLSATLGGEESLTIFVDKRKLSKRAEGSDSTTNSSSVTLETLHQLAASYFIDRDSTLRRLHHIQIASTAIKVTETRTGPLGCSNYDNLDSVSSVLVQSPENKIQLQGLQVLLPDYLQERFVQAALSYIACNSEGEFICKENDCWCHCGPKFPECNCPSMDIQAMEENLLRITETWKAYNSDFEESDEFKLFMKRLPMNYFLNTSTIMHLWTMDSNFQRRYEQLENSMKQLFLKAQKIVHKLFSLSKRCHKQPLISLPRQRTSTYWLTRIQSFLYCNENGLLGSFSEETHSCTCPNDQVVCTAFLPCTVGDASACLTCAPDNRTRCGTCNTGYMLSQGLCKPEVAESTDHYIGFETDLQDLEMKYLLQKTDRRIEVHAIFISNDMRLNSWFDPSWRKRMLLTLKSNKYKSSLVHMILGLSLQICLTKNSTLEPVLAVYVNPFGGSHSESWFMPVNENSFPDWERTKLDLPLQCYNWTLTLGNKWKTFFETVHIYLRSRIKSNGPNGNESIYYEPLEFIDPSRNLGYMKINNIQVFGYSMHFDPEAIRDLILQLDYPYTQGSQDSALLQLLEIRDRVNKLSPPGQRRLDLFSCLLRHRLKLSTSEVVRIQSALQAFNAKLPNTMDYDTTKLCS

binding, binds:
EIF3F (from UniProt O00303 1-357), Microtubule-associated protein 4 (MAP4) (from UniProt P27816 1-1152), PARP1 (from UniProt P09874 1-1014)
